Laboratory results published in article PMC8346516, “Lsm12 is an NAADP receptor and a two-pore channel regulatory protein required for calcium mobilization from acidic organelles” (Nature Communications, 2021).
Results are given in words; binding and its absence hold for the method and conditions named. Binding seen in cells or lysates may run through a third protein. Some results given as binding are weak or reduced against the parent protein; the word gives no strength. Values belong to the substance of their own block, whether it stands above or below them.

The chains behind the UniProt entries cited, without tags or fusion partners. Where a name states a change or a piece, a line headed by the entry shows the natural chain unless it says otherwise. A line that says so, or that is headed by a name, gives the form on record, which may keep a tag or linker.
UniProt Q8NHX9: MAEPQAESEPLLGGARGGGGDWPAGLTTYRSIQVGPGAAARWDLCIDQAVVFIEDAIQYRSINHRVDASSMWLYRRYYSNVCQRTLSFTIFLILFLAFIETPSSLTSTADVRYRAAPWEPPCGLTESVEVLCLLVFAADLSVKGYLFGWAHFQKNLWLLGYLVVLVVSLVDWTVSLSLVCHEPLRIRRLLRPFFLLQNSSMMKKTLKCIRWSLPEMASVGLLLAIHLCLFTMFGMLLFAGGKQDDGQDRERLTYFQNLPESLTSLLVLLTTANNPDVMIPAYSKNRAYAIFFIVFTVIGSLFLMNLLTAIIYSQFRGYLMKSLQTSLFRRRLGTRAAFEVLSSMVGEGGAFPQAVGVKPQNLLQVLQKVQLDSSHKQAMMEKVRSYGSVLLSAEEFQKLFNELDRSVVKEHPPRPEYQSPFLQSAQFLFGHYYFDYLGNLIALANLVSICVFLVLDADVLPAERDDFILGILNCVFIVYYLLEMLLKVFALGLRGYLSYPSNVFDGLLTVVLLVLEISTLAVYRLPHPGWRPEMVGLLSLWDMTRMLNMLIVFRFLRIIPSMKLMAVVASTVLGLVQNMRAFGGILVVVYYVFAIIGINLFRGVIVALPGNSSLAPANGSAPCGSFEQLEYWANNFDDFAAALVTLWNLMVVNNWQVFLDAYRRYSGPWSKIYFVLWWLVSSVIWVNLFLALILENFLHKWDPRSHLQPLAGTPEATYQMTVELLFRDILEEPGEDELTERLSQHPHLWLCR
UniProt Q3MHD2: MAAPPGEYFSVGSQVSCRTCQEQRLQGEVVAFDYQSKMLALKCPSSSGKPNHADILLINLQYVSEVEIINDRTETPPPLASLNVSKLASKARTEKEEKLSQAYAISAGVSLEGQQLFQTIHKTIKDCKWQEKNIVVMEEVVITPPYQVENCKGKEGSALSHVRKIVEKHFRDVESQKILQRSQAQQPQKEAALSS
Lsm12^Δ45–50 mutant (Q3MHD2, form named): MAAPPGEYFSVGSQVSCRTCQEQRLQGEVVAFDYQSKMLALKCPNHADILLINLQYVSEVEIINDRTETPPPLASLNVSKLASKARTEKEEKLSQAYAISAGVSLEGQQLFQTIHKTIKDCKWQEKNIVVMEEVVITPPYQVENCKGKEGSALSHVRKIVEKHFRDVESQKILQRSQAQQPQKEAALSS

Columns and labels:
[1] = target: TPC2 (exogenous, in TPC2-expressing HEK293 cells) (human) (UniProt Q8NHX9); assay: co-IP; co-immunoprecipitation of co-expressed TPC2 and Lsm12 WT or truncation mutants (Fig. 4e); WT also in the absence or presence of 100 µM NAADP (Fig. 4f)
V5-tagged TPC2 (human) [2] = target: V5-tagged TPC2 (human) (UniProt Q8NHX9); assay: proximity ligation; in situ PLA (Duolink) with anti-V5 and anti-FLAG antibodies on fixed, permeabilized HEK293 cells co-expressing V5-tagged TPC2 and FLAG-tagged Lsm12; no signal if only one construct was expressed
V5-tagged TPC2 (human) [3] = target: V5-tagged TPC2 (human) (UniProt Q8NHX9); assay: co-IP; co-immunoprecipitation of V5-tagged TPC2 and Lsm12 WT or Δ45–50 transiently expressed in HEK293 Lsm12-KO cells (Fig. 7e)
[4] = target: endogenous Lsm12 (human (endogenous in HEK293)) (UniProt Q3MHD2); assay: pull-down; immobilized NAADP (agarose beads), the ligand of Lsm12, on lysates of TPC1- or TPC2-expressing HEK293 WT and Lsm12-KO cells; immunoblot of TPC1 and TPC2
TPC2-FLAG (human) = TPC2-FLAG (human) (UniProt Q8NHX9); assay: co-IP; anti-FLAG immunoprecipitation from HEK293 cells expressing FLAG-tagged TPC1 or TPC2; immunoblot of endogenous Lsm12

binding [1]: binds
binding (V5-tagged TPC2 (human) [2]): binds
Substance: FLAG-tagged Lsm12 (WT) (from UniProt Q3MHD2 1-195)

binding (V5-tagged TPC2 (human) [3]): binds weakly
Substance: Lsm12^Δ45–50 mutant (from UniProt Q3MHD2 1-195)

binding [4]: binds
Substance: TPC2 (exogenous, in TPC2-expressing HEK293 cells) (from UniProt Q8NHX9 1-752)

binding (TPC2-FLAG (human)): binds
Substance: endogenous Lsm12 (from UniProt Q3MHD2 1-195)
